# Results deposited as PubChem BioAssay AID1508597 (Cure First, 2020).
# Test: 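Genes whose silencing sensitises or protects ovarian cancer cells against rucaparib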 (primary screen)
# Cells: human ovarian carcinoma lines grown from tumours: OCI-P5x (papillary serous) and OCI-C5x (clear cell)
# Reagents: siRNA pool against human genes, 1.25 pmol siRNA per well
# Duration: 72 h or 96 h, depending on the cell culture
# Conditions: rucaparib 20 µM (about IC30) or vehicle, present until read-out
# Detection: 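Luminescent ATP-based viability assay read 72 or 96 h after transfection, depending on culture, given as normalised percent viability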
# Direction: viability, normalised: higher = more viable cells remaining
# Hit rule: 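a well counts as a hit if its normalised viability is under 80 percent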
# Calls: active = viability under 80%; inactive = viability 80% or more
# The whole screen tested about 2,100 reagents; shown is a part drawn at random. 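Calls flag viability under 80% in either arm, not effects specific to rucaparib; the reference for percent is not stated.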 The record does not give: the 100% reference.
The opening 3 records, to show the layout:
Gene,rucaparib or vehicle,cell line,technical replicate,"viability, normalised (%)",Outcome
CDYL2 (GeneID 124359),Rucaparib,OCI-C5x (clear cell),1,35.9,active
CDYL2 (GeneID 124359),Rucaparib,OCI-C5x (clear cell),2,34.4,active
CDYL2 (GeneID 124359),Rucaparib,OCI-C5x (clear cell),3,37.8,active

The listing, from the first entry:
Gene,rucaparib or vehicle,cell line,technical replicate,"viability, normalised (%)",Outcome
CDYL2 (GeneID 124359),Rucaparib,OCI-C5x (clear cell),1,35.9,active
CDYL2 (GeneID 124359),Rucaparib,OCI-C5x (clear cell),2,34.4,active
CDYL2 (GeneID 124359),Rucaparib,OCI-C5x (clear cell),3,37.8,active
CDYL2 (GeneID 124359),Rucaparib,OCI-P5x (serous),1,99.1,inactive
CDYL2 (GeneID 124359),Rucaparib,OCI-P5x (serous),2,95.4,inactive
CDYL2 (GeneID 124359),Rucaparib,OCI-P5x (serous),3,77.2,active
CDYL2 (GeneID 124359),Vehicle,OCI-C5x (clear cell),1,26.6,active
CDYL2 (GeneID 124359),Vehicle,OCI-C5x (clear cell),2,43.5,active
CDYL2 (GeneID 124359),Vehicle,OCI-C5x (clear cell),3,52.3,active
CDYL2 (GeneID 124359),Vehicle,OCI-P5x (serous),1,97.5,inactive
CDYL2 (GeneID 124359),Vehicle,OCI-P5x (serous),2,109,inactive
CDYL2 (GeneID 124359),Vehicle,OCI-P5x (serous),3,103,inactive
PFKL (GeneID 5211),Rucaparib,OCI-C5x (clear cell),1,70.4,active
PFKL (GeneID 5211),Rucaparib,OCI-C5x (clear cell),2,53.9,active
PFKL (GeneID 5211),Rucaparib,OCI-C5x (clear cell),3,54.8,active
PFKL (GeneID 5211),Rucaparib,OCI-P5x (serous),1,89.8,inactive
PFKL (GeneID 5211),Rucaparib,OCI-P5x (serous),2,122,inactive
PFKL (GeneID 5211),Rucaparib,OCI-P5x (serous),3,102,inactive
PFKL (GeneID 5211),Vehicle,OCI-C5x (clear cell),1,77.2,active
PFKL (GeneID 5211),Vehicle,OCI-C5x (clear cell),2,64.4,active
PFKL (GeneID 5211),Vehicle,OCI-C5x (clear cell),3,50.7,active
PFKL (GeneID 5211),Vehicle,OCI-P5x (serous),1,111,inactive
PFKL (GeneID 5211),Vehicle,OCI-P5x (serous),2,95,inactive
PFKL (GeneID 5211),Vehicle,OCI-P5x (serous),3,94.9,inactive
RAD51C (GeneID 5889),Rucaparib,OCI-C5x (clear cell),1,41.9,active
RAD51C (GeneID 5889),Rucaparib,OCI-C5x (clear cell),2,52.4,active
RAD51C (GeneID 5889),Rucaparib,OCI-C5x (clear cell),3,67.8,active
RAD51C (GeneID 5889),Rucaparib,OCI-P5x (serous),1,72.5,active
RAD51C (GeneID 5889),Rucaparib,OCI-P5x (serous),2,65.7,active
RAD51C (GeneID 5889),Rucaparib,OCI-P5x (serous),3,58.3,active
RAD51C (GeneID 5889),Vehicle,OCI-C5x (clear cell),1,54.4,active
RAD51C (GeneID 5889),Vehicle,OCI-C5x (clear cell),2,50.1,active
RAD51C (GeneID 5889),Vehicle,OCI-C5x (clear cell),3,49.6,active
RAD51C (GeneID 5889),Vehicle,OCI-P5x (serous),1,68.7,active
RAD51C (GeneID 5889),Vehicle,OCI-P5x (serous),2,36.5,active
RAD51C (GeneID 5889),Vehicle,OCI-P5x (serous),3,64.5,active
MORF4L2 (GeneID 9643),Rucaparib,OCI-C5x (clear cell),1,56.4,active
MORF4L2 (GeneID 9643),Rucaparib,OCI-C5x (clear cell),2,53,active
MORF4L2 (GeneID 9643),Rucaparib,OCI-C5x (clear cell),3,81.2,inactive
MORF4L2 (GeneID 9643),Rucaparib,OCI-P5x (serous),1,66.4,active
MORF4L2 (GeneID 9643),Rucaparib,OCI-P5x (serous),2,65.4,active
MORF4L2 (GeneID 9643),Rucaparib,OCI-P5x (serous),3,74.7,active
MORF4L2 (GeneID 9643),Vehicle,OCI-C5x (clear cell),1,57.1,active
MORF4L2 (GeneID 9643),Vehicle,OCI-C5x (clear cell),2,58.4,active
MORF4L2 (GeneID 9643),Vehicle,OCI-C5x (clear cell),3,78.5,active
MORF4L2 (GeneID 9643),Vehicle,OCI-P5x (serous),1,56.5,active
MORF4L2 (GeneID 9643),Vehicle,OCI-P5x (serous),2,76.1,active
MORF4L2 (GeneID 9643),Vehicle,OCI-P5x (serous),3,63.8,active
UCK1 (GeneID 83549),Rucaparib,OCI-C5x (clear cell),1,45.2,active
UCK1 (GeneID 83549),Rucaparib,OCI-C5x (clear cell),2,69.7,active
UCK1 (GeneID 83549),Rucaparib,OCI-C5x (clear cell),3,47.9,active
UCK1 (GeneID 83549),Rucaparib,OCI-P5x (serous),1,78.6,active
UCK1 (GeneID 83549),Rucaparib,OCI-P5x (serous),2,69.1,active
UCK1 (GeneID 83549),Rucaparib,OCI-P5x (serous),3,80.3,inactive
UCK1 (GeneID 83549),Vehicle,OCI-C5x (clear cell),1,107,inactive
UCK1 (GeneID 83549),Vehicle,OCI-C5x (clear cell),2,56,active
UCK1 (GeneID 83549),Vehicle,OCI-C5x (clear cell),3,52.9,active
UCK1 (GeneID 83549),Vehicle,OCI-P5x (serous),1,70.7,active
UCK1 (GeneID 83549),Vehicle,OCI-P5x (serous),2,58.7,active
UCK1 (GeneID 83549),Vehicle,OCI-P5x (serous),3,70.2,active
